Assay results from PMC8017931.

Columns and labels:
Experiment in all cases: co-IP; lysates of HEK293T cells transfected with FLAG-tagged ARMC12 (full length or truncated); immunoprecipitation with anti-FLAG antibody; immunoblot for the endogenous partner
[1] = molecular target: ARMC12 without the C terminus, FLAG-tagged (ΔC-FLAG) (mouse)
[2] = molecular target: ARMC12 lacking the N terminus, FLAG-tagged (ΔN-FLAG) (mouse)
[3] = molecular target: ARMC12 without the ARM domain, FLAG-tagged (ΔARM-FLAG) (mouse)

- binding [1]: binds
- binding [2]: no binding
- binding [3]: binds
B1: TBC1D15 (endogenous, HEK293T) (protein, UniProt Q8TC07 1-691)
chain: MAAAGVVSGKIIYEQEGVYIHSSCGKTNDQDGLISGILRVLEKDAEVIVDWRPLDDALDSSSILYARKDSSSVVEWTQAPKERGHRGSEHLNSYEAEWDMVNTVSFKRKPHTNGDAPSHRNGKSKWSFLFSLTDLKSIKQNKEGMGWSYLVFCLKDDVVLPALHFHQGDSKLLIESLEKYVVLCESPQDKRTLLVNCQNKSLSQSFENLLDEPAYGLIQAGLLDRRKLLWAIHHWKKIKKDPYTATMIGFSKVTNYIFDSLRGSDPSTHQRPPSEMADFLSDAIPGLKINQQEEPGFEVITRIDLGERPVVQRREPVSLEEWTKNIDSEGRILNVDNMKQMIFRGGLSHALRKQAWKFLLGYFPWDSTKEERTQLQKQKTDEYFRMKLQWKSISQEQEKRNSRLRDYRSLIEKDVNRTDRTNKFYEGQDNPGLILLHDILMTYCMYDFDLGYVQGMSDLLSPLLYVMENEVDAFWCFASYMDQMHQNFEEQMQGMKTQLIQLSTLLRLLDSGFCSYLESQDSGYLYFCFRWLLIRFKREFSFLDILRLWEVMWTELPCTNFHLLLCCAILESEKQQIMEKHYGFNEILKHINELSMKIDVEDILCKAEAISLQMVKCKELPQAVCEILGLQGSEVTTPDSDVGEDENVVMTPCPTSAFQSNALPTLSASGARNDSPTQIPVSSDVCRLTPA

These are yes or no findings as the source states them, for the method shown. Binding seen in cells or lysates may run through a third protein. For part of these data: A result given as binding can be weak or reduced; the word gives no strength.
